Patent US8974823B2, “Solid compositions of low-solubility drugs and poloxamers” (Bend Research, Inc., priority 2003, dated 2015)

Assay: physchem

COC(=O)C1=C(C)NC(C)=C(C(=O)OC)C1c1ccccc1[N+](=O)[O-] [nifedipine]
logP: ~2.4
